± gives the standard deviation of the averaged measurements. Only a part is listed here, and it is no random draw.
Compound: Nc1ncnc2c1ncn2[C@@H]1O[C@H](COP(=O)(O)OP(=O)(O)NP(=O)(O)O)[C@@H](O)[C@H]1O [adenylyl imidodiphosphate]
Assay: NP40-soluble protein abundance relative to vehicle (solubility fold change) (ratio); higher = more soluble protein in presence of AMP-PNP
In short: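 In three independent experiments, Jurkat crude lysate made by Dounce homogenisation was treated for 10 min at room temperature and then 3 min at 37 °C with eight concentrations ranging from 0.1 to 10 mM. It was then solubilised with 0.8% NP40 plus benzonase for 60 min at 4 °C and ultracentrifuged. The supernatant was TMT-labelled for LC-MS/MS, and each value is the fold change against the detergent-processed vehicle for the same replicate, using vsn-normalised intensities.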

Sequences of proteins named here, by UniProt entry; tags and fusion partners are left off. A change or cut given only in a name is not applied to a line headed by its entry.
UniProt Q13098: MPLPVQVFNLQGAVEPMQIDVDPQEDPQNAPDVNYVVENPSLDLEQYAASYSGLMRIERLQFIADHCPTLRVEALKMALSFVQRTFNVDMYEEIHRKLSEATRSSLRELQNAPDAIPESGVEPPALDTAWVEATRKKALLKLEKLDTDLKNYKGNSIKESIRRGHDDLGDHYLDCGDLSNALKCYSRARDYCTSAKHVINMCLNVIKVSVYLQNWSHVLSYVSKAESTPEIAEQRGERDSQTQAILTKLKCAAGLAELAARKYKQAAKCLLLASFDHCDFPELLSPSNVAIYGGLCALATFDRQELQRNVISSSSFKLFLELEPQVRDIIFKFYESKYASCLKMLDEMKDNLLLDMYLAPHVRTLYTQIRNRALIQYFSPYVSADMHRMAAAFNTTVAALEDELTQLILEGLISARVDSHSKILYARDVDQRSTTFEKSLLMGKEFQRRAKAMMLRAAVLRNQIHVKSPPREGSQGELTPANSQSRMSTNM
UniProt P15336: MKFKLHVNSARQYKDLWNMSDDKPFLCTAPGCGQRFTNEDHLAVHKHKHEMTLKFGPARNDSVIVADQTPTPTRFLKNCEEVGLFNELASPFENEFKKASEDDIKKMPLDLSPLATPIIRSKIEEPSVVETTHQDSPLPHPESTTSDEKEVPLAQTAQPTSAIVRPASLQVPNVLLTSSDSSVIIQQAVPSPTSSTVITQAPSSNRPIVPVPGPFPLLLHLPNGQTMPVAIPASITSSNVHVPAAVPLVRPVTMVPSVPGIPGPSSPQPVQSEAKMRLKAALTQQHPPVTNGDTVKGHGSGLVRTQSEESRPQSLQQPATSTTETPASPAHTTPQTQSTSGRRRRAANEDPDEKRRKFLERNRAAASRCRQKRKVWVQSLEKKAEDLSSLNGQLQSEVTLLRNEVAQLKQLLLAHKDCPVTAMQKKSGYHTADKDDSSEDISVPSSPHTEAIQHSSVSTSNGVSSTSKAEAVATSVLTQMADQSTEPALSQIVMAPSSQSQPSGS
UniProt Q9UPW0: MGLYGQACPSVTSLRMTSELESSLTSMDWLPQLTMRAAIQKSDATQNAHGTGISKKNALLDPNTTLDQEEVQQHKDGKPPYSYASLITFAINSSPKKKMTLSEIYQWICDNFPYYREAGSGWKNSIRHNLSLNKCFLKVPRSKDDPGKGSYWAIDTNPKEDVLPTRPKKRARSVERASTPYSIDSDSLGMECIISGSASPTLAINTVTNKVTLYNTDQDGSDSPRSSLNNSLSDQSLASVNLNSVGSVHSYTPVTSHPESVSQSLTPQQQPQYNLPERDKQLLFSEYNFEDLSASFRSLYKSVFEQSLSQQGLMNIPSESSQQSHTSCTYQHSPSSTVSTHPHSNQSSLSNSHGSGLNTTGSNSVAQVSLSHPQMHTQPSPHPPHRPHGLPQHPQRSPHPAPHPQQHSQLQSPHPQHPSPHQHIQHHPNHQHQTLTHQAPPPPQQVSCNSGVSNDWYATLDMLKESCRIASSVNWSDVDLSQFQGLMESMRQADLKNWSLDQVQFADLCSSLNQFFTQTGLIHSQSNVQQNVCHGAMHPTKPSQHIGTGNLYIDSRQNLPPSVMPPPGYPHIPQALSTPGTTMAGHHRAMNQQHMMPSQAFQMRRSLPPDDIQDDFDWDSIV
UniProt Q8N3P4: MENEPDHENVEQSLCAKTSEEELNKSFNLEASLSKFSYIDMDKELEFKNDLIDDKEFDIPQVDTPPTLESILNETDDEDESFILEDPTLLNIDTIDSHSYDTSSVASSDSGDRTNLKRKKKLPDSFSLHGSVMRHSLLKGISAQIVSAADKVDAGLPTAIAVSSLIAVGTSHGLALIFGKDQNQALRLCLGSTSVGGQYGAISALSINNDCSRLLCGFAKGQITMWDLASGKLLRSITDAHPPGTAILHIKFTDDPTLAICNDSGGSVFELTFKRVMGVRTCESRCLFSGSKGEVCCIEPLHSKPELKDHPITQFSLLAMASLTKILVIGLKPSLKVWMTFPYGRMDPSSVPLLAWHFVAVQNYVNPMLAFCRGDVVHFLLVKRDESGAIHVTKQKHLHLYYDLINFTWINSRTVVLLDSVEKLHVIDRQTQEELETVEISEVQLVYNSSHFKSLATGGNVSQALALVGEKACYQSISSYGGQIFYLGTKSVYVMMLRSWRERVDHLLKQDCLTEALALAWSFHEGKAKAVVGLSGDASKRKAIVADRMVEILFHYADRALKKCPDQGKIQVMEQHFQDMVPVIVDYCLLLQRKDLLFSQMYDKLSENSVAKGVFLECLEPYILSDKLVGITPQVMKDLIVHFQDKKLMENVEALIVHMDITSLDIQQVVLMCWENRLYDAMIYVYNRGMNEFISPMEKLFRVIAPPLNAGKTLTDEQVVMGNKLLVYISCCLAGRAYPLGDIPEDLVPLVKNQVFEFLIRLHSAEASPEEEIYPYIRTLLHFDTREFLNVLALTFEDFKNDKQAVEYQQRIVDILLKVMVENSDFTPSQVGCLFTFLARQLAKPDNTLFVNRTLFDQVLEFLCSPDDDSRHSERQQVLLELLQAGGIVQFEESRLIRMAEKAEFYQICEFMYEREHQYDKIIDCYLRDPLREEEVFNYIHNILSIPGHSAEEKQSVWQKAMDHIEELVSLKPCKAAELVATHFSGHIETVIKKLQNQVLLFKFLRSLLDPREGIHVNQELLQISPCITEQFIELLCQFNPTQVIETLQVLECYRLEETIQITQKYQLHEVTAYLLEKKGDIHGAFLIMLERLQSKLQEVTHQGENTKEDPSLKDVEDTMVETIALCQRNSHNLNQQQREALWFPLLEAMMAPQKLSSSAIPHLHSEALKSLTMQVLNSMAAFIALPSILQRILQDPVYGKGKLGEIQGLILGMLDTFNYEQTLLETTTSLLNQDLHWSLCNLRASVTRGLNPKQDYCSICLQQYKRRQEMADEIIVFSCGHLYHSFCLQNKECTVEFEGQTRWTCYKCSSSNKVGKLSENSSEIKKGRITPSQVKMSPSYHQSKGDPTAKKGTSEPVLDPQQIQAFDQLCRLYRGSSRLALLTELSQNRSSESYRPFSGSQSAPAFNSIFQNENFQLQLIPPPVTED
UniProt A4D1U4: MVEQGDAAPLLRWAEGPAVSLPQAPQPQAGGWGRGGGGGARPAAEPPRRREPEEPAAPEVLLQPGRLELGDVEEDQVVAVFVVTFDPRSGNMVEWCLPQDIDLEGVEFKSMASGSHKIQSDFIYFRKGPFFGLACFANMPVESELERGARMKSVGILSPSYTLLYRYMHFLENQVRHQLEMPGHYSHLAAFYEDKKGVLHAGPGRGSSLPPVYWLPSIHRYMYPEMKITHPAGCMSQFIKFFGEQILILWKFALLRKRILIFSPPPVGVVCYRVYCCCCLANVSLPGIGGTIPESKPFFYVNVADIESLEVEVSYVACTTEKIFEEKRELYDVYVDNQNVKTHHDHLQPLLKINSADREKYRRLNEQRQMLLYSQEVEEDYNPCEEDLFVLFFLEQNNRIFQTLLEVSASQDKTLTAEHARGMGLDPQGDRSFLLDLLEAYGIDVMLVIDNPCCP
UniProt P07602: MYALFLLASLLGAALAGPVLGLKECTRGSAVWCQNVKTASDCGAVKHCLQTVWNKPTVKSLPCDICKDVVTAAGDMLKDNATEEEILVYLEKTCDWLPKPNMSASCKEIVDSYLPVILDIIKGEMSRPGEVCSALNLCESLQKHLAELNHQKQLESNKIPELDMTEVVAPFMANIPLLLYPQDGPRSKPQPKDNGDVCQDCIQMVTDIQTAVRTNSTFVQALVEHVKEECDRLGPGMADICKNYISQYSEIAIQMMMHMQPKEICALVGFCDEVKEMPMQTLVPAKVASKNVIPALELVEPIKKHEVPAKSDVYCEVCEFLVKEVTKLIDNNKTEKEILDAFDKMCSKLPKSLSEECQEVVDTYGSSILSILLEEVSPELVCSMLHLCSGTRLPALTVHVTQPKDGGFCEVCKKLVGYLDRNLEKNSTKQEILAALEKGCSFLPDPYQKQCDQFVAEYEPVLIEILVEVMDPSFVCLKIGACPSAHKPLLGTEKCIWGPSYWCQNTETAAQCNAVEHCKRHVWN
UniProt Q86WP2: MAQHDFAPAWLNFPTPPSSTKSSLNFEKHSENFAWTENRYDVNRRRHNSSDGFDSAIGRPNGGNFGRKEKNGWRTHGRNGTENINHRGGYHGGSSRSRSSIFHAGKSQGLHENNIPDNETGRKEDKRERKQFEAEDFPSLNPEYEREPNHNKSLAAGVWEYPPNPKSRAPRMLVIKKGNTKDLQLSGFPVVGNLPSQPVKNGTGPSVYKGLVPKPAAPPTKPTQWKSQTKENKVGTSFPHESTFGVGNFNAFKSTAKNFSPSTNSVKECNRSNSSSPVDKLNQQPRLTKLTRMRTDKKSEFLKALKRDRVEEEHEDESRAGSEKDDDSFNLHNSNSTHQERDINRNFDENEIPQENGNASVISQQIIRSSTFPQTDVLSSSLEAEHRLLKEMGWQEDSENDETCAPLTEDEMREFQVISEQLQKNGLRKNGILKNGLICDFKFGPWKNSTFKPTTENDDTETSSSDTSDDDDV
UniProt Q9Y4C2: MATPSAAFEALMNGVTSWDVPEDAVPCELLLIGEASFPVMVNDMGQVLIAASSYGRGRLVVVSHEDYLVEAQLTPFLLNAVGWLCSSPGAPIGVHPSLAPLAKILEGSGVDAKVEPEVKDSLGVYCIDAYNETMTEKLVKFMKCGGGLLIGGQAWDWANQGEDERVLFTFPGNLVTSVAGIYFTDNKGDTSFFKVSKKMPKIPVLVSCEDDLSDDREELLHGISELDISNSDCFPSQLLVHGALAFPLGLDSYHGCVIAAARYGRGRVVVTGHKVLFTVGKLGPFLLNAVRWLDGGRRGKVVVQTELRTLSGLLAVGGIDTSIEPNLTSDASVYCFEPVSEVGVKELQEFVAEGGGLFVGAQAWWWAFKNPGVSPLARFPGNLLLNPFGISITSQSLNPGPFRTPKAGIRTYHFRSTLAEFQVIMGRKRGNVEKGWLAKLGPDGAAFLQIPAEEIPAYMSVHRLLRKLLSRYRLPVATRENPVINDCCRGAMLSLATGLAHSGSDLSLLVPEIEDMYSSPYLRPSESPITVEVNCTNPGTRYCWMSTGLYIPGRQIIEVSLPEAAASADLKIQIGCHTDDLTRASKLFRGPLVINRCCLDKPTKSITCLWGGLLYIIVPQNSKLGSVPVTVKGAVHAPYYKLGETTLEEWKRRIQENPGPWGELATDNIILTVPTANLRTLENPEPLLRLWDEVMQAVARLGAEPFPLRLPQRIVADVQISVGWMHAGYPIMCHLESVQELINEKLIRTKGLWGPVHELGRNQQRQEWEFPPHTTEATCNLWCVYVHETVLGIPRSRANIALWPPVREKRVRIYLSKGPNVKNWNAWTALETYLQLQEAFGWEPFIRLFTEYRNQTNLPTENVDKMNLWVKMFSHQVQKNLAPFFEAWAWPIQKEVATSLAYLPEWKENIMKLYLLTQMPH
UniProt P06454: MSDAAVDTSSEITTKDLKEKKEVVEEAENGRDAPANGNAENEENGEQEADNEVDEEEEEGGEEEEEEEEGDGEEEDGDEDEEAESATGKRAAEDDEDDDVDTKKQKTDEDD
UniProt Q5TEU4: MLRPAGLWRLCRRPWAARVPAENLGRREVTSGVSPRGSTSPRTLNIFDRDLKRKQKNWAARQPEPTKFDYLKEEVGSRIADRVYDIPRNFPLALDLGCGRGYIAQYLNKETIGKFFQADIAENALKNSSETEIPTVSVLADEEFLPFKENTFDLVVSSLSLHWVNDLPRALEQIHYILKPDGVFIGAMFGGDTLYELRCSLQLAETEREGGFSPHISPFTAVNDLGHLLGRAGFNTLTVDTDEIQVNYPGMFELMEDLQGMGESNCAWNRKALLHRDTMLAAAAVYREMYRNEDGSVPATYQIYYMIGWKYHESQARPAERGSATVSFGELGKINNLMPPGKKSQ
UniProt Q96GF1: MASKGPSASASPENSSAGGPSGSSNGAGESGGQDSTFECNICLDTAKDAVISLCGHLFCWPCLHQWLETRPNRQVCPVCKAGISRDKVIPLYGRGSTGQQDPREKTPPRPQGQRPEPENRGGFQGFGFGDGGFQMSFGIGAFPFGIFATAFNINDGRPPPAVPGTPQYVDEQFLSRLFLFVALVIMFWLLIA
UniProt P40616: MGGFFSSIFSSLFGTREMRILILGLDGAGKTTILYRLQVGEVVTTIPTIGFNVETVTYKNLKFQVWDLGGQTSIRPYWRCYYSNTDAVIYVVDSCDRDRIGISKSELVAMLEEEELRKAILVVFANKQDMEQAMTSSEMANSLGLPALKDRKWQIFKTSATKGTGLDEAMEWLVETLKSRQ
UniProt A8MPS7: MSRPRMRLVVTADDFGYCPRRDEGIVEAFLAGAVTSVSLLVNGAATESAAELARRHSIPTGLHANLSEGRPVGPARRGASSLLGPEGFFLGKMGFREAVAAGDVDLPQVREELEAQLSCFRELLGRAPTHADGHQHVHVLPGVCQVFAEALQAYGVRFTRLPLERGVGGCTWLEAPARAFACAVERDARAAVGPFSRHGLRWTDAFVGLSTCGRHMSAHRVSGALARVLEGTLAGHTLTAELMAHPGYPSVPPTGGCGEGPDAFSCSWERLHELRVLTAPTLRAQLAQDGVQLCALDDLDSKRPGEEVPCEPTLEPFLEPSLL

Row | Target | NP40-soluble protein abundance (concentration: 1mM) | NP40-soluble protein abundance (concentration: 2mM) | NP40-soluble protein abundance (concentration: 4mM) | NP40-soluble protein abundance (concentration: 6mM) | NP40-soluble protein abundance (concentration: 8mM) | NP40-soluble protein abundance (concentration: 10mM)
1 | C9JP16 and related entries (UniProt O75718) | 1.01 ± 0.025 | 1.05 ± 0.0041 | 1.07 ± 0.051 | 1.02 ± 0.029 | 1.07 ± 0.034 | 1.13 ± 0.041
2 | D3DTX6 and related entries (UniProt Q96SB3) | 1.04 ± 0.04 | 1.13 ± 0.16 | 1.03 ± 0.024 | 1.05 ± 0.083 | 1.04 ± 0.12 | 1.1 ± 0.1
3 | B7ZAX5 and related entries (UniProt Q01415) | 0.985 ± 0.027 | 0.971 ± 0.07 | 1.03 ± 0.024 | 1.03 ± 0.072 | 1.04 ± 0.081 | 1.04 ± 0.015
4 | C9JFE4 and related entries (UniProt Q13098) | 0.964 ± 0.03 | 0.961 ± 0.029 | 0.985 ± 0.065 | 1.1 ± 0.13 | 1.11 ± 0.075 | 1.11 ± 0.11
5 | C5orf51 (UniProt A6NDU8) | 1.04 ± 0.014 | 1.03 ± 0.025 | 1.01 ± 0.025 | 0.9735 ± 0.0065 | 0.953 ± 0.017 | 0.95 ± 0.05
6 | E5RHG8 and related entries (UniProt Q15369) | 1.05 ± 0.021 | 1.08 ± 0.031 | 0.99 ± 0.037 | 1.038 ± 0.0023 | 0.989 ± 0.011 | 1.01 ± 0.029
7 | B4E1G1 and related entries (UniProt Q9BUN8) | 0.989 ± 0.021 | 0.976 ± 0.011 | 0.975 ± 0.015 | 0.985 ± 0.02 | 0.972 ± 0.0099 | 1.01 ± 0.028
8 | B8ZZU6 and related entries (UniProt P15336) | 0.998 ± 0.045 | 1 ± 0.091 | 0.986 ± 0.062 | 1.03 ± 0.035 | 1.05 ± 0.044 | 1.04 ± 0.059
9 | C9JVP0 and related entries (UniProt Q9UPW0) | 1.012 ± 0.0019 | 1.04 ± 0.075 | 0.9962 ± 0.0041 | 1 ± 0.029 | 1.01 ± 0.022 | 1.04 ± 0.019
10 | A8MVZ6 and related entries (UniProt Q96G01) | 1.01 ± 0.014 | 1.03 ± 0.026 | 1.02 ± 0.036 | 0.958 ± 0.011 | 0.955 ± 0.018 | 0.955 ± 0.024
11 | B4DKB2 and related entries (UniProt P42892) | 1.02 ± 0.019 | 1.04 ± 0.064 | 1.02 ± 0.058 | 1.04 ± 0.028 | 1.02 ± 0.027 | 1.05 ± 0.034
12 | C9JBL1 and related entries (UniProt Q9Y6A9) | 0.969 ± 0.013 | 0.976 ± 0.024 | 0.946 ± 0.045 | 1.01 ± 0.019 | 1.01 ± 0.028 | 1.01 ± 0.03
13 | C9JJN9 and related entries (UniProt Q8N3P4) | 0.968 ± 0.021 | 0.978 ± 0.039 | 0.976 ± 0.021 | 0.953 ± 0.032 | 0.955 ± 0.033 | 0.9355 ± 0.0078
14 | KIAA1147 (UniProt A4D1U4) | 1.04 ± 0.028 | 1.03 ± 0.041 | 1.02 ± 0.032 | 0.993 ± 0.018 | 1 ± 0.034 | 0.994 ± 0.013
15 | C9JIZ6 and related entries (UniProt P07602) | 0.999 ± 0.042 | 1.1 ± 0.07 | 0.984 ± 0.045 | 0.966 ± 0.018 | 0.922 ± 0.024 | 0.943 ± 0.067
16 | D4PHA4 and related entries (UniProt Q86WP2) | 0.999 ± 0.011 | 1.03 ± 0.026 | 0.992 ± 0.02 | 1.04 ± 0.1 | 1.01 ± 0.063 | 1.05 ± 0.054
17 | D4Q8H0 and related entries (UniProt Q9NYL2+D4Q8H0) | 1.03 ± 0.031 | 1.02 ± 0.041 | 1.06 ± 0.012 | 1.01 ± 0.037 | 1.02 ± 0.036 | 1.03 ± 0.017
18 | C9J9F4 and related entries (UniProt Q9Y4C2) | 0.987 ± 0.022 | 0.976 ± 0.088 | 0.949 ± 0.043 | 0.951 ± 0.067 | 0.962 ± 0.063 | 0.944 ± 0.097
19 | A6PW57 and related entries (UniProt Q99755) | 1.07 ± 0.026 | 1.04 ± 0.12 | 1.11 ± 0.067 | 1.14 ± 0.047 | 1.16 ± 0.051 | 1.12 ± 0.03
20 | D6RAM1 and related entries (UniProt P31943) | 1.03 ± 0.0061 | 0.996 ± 0.042 | 1.03 ± 0.026 | 0.971 ± 0.022 | 0.9782 ± 0.0075 | 0.966 ± 0.029
21 | B7Z2L0 and related entries (UniProt Q9UHQ4) | 1.04 ± 0.022 | 1.08 ± 0.067 | 1.02 ± 0.019 | 1 ± 0.044 | 0.969 ± 0.036 | 0.972 ± 0.024
22 | B8ZZQ6 and related entries (UniProt P06454) | 1.05 ± 0.12 | 1.04 ± 0.052 | 0.991 ± 0.088 | 0.999 ± 0.13 | 0.919 ± 0.064 | 1.01 ± 0.14
23 | B9EGA3 and related entries (UniProt Q92925) | 0.971 ± 0.034 | 0.959 ± 0.03 | 0.984 ± 0.059 | 1.04 ± 0.032 | 1.06 ± 0.05 | 1.07 ± 0.14
24 | B1AL69 and related entries (UniProt Q7L3B6) | 0.999 ± 0.014 | 1.02 ± 0.036 | 0.967 ± 0.029 | 0.962 ± 0.017 | 0.955 ± 0.036 | 0.924 ± 0.034
25 | B3KR61 and related entries (UniProt Q5TEU4) | 1.09 ± 0.097 | 1.1 ± 0.093 | 1.04 ± 0.028 | 1.02 ± 0.1 | 1.02 ± 0.083 | 1.06 ± 0.07
26 | B7ZBM8 and related entries (UniProt O14662) | 0.982 ± 0.057 | 1.04 ± 0.036 | 0.998 ± 0.041 | 0.997 ± 0.041 | 0.969 ± 0.021 | 1.01 ± 0.019
27 | A9X3U0 and related entries (UniProt Q96GF1) | 1.02 ± 0.03 | 1.01 ± 0.046 | 0.971 ± 0.027 | 0.973 ± 0.048 | 0.974 ± 0.035 | 0.972 ± 0.054
28 | C9J4W5 and related entries (UniProt Q9GZV4) | 0.926 ± 0.091 | 0.916 ± 0.024 | 0.903 ± 0.095 | 0.924 ± 0.027 | 0.931 ± 0.079 | 0.873 ± 0.065
29 | B4DZG7 and related entries (UniProt P40616) | 1 ± 0.11 | 0.887 ± 0.034 | 1.02 ± 0.039 | 0.994 ± 0.2 | 1.05 ± 0.12 | 0.99 ± 0.08
30 | YDJC (UniProt A8MPS7) | 0.977 ± 0.0078 | 0.982 ± 0.024 | 0.993 ± 0.016 | 1 ± 0.0058 | 1.003 ± 0.0052 | 0.9793 ± 0.0049

Another view of part of the listing above:

| Row | Target | NP40-soluble protein abundance (concentration: 1mM) | NP40-soluble protein abundance (concentration: 2mM) | NP40-soluble protein abundance (concentration: 4mM) | NP40-soluble protein abundance (concentration: 6mM) | NP40-soluble protein abundance (concentration: 8mM) | NP40-soluble protein abundance (concentration: 10mM) |
| --- | --- | --- | --- | --- | --- | --- | --- |
| 19 | A6PW57 and related entries (UniProt Q99755) | 1.07 ± 0.026 | 1.04 ± 0.12 | 1.11 ± 0.067 | 1.14 ± 0.047 | 1.16 ± 0.051 | 1.12 ± 0.03 |
| 25 | B3KR61 and related entries (UniProt Q5TEU4) | 1.09 ± 0.097 | 1.1 ± 0.093 | 1.04 ± 0.028 | 1.02 ± 0.1 | 1.02 ± 0.083 | 1.06 ± 0.07 |

— the supplement of paper PMC6411743
